In paper PMC9295971:
Results are given in words; binding and its absence hold for the method and conditions named. In cells and extracts the contact can be indirect. Some results given as binding are weak or reduced against the parent protein; the word gives no strength.

The chains behind the UniProt entries cited, without tags or fusion partners.
UniProt P43354: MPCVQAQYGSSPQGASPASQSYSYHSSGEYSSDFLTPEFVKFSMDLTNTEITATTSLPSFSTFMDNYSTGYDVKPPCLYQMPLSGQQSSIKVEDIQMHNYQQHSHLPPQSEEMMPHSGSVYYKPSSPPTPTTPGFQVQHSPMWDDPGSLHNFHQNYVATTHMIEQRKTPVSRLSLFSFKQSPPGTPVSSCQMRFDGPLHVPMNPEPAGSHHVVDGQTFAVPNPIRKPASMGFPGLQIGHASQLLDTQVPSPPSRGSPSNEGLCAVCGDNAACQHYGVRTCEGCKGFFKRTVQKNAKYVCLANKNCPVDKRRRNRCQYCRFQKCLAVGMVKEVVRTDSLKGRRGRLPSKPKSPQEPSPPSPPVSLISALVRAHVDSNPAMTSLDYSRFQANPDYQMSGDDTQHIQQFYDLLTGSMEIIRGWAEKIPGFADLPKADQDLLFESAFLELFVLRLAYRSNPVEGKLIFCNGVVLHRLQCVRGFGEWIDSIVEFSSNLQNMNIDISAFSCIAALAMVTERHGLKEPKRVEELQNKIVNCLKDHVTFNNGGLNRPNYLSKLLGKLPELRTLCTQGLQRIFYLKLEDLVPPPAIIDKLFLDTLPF
UniProt Q96KQ7: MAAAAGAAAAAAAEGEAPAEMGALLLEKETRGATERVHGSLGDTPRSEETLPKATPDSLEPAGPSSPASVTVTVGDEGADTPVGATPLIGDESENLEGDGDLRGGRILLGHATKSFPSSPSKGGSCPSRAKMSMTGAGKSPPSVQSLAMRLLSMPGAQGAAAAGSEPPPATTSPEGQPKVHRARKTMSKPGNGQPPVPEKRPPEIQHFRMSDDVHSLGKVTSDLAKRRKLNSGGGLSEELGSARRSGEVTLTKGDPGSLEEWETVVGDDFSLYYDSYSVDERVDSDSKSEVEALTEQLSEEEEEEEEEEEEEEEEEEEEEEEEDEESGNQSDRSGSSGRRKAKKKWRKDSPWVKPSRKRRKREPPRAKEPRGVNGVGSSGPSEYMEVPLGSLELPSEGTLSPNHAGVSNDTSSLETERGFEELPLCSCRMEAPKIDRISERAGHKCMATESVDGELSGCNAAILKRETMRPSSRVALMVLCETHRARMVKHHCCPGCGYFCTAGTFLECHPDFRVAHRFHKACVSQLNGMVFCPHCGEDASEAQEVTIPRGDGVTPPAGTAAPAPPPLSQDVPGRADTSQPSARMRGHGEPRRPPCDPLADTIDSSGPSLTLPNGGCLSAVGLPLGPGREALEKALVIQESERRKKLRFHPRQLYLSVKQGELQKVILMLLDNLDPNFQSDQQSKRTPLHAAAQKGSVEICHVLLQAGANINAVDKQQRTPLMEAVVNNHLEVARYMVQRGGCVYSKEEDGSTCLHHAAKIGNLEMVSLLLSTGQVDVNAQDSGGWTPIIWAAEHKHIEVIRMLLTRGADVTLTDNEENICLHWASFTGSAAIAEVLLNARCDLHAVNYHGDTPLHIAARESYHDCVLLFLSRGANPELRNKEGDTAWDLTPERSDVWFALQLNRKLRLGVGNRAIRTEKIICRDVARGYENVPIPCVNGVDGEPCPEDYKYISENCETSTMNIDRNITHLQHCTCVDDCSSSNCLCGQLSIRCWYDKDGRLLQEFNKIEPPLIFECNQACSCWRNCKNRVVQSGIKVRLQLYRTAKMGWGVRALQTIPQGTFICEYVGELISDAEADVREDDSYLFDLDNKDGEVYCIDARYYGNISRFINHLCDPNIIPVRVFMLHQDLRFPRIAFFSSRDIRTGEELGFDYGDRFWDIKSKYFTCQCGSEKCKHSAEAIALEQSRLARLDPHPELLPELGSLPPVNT
UniProt Q13547: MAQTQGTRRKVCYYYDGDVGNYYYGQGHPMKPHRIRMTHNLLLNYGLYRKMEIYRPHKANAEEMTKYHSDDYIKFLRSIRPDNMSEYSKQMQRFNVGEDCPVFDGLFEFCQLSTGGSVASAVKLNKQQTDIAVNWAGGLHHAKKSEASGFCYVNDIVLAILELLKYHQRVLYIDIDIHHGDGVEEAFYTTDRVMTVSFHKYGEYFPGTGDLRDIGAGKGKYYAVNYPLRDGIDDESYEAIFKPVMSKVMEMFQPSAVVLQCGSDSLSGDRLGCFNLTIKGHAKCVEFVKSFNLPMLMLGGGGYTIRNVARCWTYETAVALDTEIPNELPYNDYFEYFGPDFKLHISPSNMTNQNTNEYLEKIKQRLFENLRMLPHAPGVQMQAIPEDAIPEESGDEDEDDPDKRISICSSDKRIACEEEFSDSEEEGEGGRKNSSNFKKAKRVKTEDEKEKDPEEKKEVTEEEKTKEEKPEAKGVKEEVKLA
UniProt Q9UKL0: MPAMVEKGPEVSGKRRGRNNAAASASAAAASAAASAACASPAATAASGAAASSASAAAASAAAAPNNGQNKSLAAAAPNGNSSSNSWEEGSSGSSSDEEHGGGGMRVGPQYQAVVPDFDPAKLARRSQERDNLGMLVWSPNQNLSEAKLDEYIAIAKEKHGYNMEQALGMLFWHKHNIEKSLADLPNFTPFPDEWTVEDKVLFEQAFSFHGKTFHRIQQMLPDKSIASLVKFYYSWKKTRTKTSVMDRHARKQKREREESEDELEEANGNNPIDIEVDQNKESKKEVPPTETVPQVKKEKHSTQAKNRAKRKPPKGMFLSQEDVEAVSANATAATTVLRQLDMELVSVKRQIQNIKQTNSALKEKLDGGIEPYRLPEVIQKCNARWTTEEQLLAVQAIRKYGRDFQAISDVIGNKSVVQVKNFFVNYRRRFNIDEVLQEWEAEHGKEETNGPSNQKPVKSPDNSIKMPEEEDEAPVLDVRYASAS

Experiments:
[1] = molecular target: 3X-FLAG-tagged Nurr1 (NR4A2), wild type (human) (UniProt P43354); assay: co-IP; total protein lysates of HC69-3X-FLAG-Nurr1 cells (HC69-3X-FLAG-vector cells as control) precipitated with mouse monoclonal anti-FLAG antibody on magnetic beads; Western blot of the products; cells untreated, TNF-α 400 pg/ml for 4 hr or 24 hr, or 24 hr TNF-α followed by a 24 hr chase
[2] = molecular target: Nurr1 (NR4A2), endogenous (human (endogenous in HC69)) (UniProt P43354); assay: co-IP; total protein extracts of HC69 cells expressing control shRNA or NIK shRNAs precipitated with mouse monoclonal anti-Nurr1 antibody (control mouse IgG); Western blot for Nurr1, phospho-serine and CoREST; cells untreated, TNF-α 400 pg/ml for different times, or 24 hr TNF-α followed by a 24 hr chase

| binding [1] | binding [2] | Substance |
| --- | --- | --- |
| binds |  | euchromatic histone lysine N-methyltransferase 2 (G9a; EHMT2) (from UniProt Q96KQ7 1-1210) |
| binds |  | histone deacetylase 1 (HDAC1) (from UniProt Q13547 1-482) |
| binds | binds | CoREST (from UniProt Q9UKL0 1-485) |
